This assay concerns the target LILRA3 expressed on transiently transfected Expi293 cells (human) (UniProt Q8N6C8). Briefly: flow cytometry, transfected Expi293 cells.

Sequences of proteins named here, by UniProt entry; tags and fusion partners are left off. A change or cut given only in a name is not applied to a line headed by its entry.
UniProt Q8N6C8: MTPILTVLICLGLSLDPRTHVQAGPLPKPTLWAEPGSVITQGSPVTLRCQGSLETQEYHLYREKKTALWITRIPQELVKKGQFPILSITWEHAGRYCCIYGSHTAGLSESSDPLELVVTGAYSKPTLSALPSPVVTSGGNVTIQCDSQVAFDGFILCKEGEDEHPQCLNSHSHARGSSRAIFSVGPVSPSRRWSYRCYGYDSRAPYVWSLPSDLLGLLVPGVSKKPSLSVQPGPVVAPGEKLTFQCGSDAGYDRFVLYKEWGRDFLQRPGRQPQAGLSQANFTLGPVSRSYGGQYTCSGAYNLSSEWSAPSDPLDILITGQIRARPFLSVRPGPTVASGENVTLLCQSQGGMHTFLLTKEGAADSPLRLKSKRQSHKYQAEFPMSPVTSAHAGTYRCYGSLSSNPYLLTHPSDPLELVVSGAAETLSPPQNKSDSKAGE

Results are given in words; binding and its absence hold for the method and conditions named. Some binding calls cover weakened binding; strength is not graded here.

B1: A-045 (antibody, V domains shown)
VH: QVQLVQSGAEVKKPGSSVKVSCKASGGTFQSQAFAWVRQAPGQGLEWMGSIIPGFSTANYAQKFQGRVTITADESTSTAYMELSSLRSEDTAVYYCAKDLGTYSSGWPYYYGMDVWGQGTTVTVSS
VL: SYELTQPPSVSVSPGQTASITCSGDKLGDKYASWYQQKPGQSPVLVIYQDSKRPSGIPERFSGSNSGNTATLTISGTQAEDEADYYCQLTHLTIYVFGGGTKLTVL
Regarding B1, the binding entry is recorded as “binds”.

For the origin of these results see patent EP4491230A1 (iOmx Therapeutics AG, dated 2025).
